Measurements reported in article PMC6390652 (Toxicological Sciences, 2018).

System: Caco-2 cells
Conditions: human

- Caco-2 TEER IC15/Cmax: 7
Structure (SMILES): CCCCc1oc2ccccc2c1C(=O)c1cc(I)c(OCCN(CC)CC)c(I)c1 [Amiodarone]
